Assay results published in the supplement of paper PMC10849652.
The list shows a part of the results.

The chains behind the UniProt entries cited, without tags or fusion partners. Where a name states a change or a piece, a line headed by the entry shows the natural chain unless it says otherwise.
UniProt Q9UHR6: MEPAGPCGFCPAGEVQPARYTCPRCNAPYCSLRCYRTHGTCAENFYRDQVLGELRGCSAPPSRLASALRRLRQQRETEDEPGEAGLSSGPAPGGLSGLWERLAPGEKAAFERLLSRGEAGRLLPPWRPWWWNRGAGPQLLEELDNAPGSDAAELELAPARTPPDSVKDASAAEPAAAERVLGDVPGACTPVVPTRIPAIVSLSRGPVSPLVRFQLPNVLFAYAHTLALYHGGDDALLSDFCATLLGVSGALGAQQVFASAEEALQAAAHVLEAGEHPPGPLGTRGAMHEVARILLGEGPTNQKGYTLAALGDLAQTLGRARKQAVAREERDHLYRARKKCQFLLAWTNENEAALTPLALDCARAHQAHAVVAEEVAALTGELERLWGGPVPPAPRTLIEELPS
UniProt O15440: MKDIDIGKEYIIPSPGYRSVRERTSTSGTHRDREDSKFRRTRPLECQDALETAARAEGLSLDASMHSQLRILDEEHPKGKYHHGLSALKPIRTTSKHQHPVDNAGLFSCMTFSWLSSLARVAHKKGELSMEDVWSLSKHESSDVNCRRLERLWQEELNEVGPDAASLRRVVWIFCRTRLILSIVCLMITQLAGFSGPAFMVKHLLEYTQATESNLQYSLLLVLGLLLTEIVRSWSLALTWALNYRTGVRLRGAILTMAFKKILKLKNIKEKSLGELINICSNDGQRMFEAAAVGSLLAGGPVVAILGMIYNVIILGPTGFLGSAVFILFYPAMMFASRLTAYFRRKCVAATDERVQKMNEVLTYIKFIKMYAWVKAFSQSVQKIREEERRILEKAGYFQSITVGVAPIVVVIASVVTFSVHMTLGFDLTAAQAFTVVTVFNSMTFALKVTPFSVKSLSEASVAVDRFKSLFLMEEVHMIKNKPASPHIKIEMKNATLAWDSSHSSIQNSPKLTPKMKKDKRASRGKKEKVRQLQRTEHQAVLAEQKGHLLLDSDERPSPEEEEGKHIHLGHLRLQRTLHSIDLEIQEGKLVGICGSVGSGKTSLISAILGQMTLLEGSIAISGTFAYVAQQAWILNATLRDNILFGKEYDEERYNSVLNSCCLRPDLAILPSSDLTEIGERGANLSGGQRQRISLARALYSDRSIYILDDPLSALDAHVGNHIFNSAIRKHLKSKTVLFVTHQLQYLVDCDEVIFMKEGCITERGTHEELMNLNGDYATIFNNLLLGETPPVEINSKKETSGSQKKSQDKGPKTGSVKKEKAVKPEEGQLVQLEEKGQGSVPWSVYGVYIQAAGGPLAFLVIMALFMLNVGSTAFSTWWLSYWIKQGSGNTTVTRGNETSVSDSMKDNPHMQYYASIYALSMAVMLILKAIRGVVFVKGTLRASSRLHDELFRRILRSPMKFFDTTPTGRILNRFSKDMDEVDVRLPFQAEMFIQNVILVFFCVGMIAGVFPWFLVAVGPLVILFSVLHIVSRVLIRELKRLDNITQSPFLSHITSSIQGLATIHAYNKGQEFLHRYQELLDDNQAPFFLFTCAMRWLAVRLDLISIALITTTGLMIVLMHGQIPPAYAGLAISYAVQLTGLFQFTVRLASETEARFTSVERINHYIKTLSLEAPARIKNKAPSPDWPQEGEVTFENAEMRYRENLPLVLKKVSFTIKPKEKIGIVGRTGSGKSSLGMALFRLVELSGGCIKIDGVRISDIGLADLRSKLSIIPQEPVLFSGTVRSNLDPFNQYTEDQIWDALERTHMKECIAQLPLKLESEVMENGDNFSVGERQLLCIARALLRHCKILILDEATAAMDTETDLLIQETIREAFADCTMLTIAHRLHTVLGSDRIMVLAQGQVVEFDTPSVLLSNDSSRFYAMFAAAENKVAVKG
UniProt Q9Y5A6: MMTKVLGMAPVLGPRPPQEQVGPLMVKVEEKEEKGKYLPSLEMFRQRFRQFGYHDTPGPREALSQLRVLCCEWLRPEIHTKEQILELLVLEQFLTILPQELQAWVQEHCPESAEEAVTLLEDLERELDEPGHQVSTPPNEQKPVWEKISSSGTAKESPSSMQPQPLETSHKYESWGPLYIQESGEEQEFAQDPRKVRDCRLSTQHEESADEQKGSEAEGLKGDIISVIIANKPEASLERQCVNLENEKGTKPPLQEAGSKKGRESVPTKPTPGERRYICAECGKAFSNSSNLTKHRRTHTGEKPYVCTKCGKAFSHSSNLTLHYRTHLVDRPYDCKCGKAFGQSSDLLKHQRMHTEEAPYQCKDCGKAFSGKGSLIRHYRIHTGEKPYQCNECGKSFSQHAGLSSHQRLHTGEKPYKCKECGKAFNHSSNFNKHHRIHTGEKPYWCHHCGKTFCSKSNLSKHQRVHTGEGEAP
UniProt Q9P2E3: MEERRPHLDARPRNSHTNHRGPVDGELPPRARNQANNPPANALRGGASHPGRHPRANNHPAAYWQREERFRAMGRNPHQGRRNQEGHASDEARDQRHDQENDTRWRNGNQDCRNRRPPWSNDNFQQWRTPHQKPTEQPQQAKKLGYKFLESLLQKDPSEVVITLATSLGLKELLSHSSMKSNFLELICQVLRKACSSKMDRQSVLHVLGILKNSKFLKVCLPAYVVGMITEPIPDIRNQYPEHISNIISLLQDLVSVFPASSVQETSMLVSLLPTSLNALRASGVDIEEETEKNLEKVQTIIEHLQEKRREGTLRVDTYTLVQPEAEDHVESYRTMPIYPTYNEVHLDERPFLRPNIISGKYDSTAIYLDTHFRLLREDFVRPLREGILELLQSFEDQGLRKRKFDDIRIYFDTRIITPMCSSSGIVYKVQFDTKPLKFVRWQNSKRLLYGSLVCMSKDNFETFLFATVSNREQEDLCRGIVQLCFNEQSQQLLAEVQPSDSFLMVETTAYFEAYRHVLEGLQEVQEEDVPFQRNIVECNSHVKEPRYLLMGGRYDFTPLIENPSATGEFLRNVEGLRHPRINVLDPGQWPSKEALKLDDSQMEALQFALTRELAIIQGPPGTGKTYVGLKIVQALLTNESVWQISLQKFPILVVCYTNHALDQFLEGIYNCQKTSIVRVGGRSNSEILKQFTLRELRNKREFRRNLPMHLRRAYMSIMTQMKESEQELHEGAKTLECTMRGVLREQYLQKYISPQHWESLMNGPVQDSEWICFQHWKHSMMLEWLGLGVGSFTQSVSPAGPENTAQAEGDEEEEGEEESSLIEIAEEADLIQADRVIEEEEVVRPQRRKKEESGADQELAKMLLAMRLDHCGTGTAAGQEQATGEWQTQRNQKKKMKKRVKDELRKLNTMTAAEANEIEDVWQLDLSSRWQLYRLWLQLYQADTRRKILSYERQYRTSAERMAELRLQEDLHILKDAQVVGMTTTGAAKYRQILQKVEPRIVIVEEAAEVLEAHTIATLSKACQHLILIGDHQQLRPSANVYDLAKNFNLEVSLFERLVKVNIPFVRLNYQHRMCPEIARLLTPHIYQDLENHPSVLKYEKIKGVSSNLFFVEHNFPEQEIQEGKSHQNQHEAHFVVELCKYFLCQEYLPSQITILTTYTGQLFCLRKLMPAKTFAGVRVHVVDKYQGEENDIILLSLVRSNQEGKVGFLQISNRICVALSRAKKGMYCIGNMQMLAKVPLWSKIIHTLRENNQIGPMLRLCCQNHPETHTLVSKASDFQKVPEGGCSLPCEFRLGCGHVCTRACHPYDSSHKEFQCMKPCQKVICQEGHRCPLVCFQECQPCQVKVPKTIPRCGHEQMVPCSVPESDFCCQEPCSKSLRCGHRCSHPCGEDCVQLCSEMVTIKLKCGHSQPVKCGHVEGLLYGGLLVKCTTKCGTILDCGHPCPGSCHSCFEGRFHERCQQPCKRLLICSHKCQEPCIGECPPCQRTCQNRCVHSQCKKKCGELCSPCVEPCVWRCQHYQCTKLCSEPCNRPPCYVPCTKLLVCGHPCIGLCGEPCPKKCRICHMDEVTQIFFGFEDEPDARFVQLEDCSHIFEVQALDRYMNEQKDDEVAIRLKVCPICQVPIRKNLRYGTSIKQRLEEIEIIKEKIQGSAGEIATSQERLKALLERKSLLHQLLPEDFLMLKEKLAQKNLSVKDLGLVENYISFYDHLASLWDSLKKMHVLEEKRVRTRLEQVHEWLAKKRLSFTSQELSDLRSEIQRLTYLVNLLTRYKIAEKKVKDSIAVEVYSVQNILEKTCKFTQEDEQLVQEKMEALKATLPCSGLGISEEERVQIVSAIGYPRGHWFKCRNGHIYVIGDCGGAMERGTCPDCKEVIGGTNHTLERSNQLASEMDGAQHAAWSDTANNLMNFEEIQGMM
UniProt Q8WTS1: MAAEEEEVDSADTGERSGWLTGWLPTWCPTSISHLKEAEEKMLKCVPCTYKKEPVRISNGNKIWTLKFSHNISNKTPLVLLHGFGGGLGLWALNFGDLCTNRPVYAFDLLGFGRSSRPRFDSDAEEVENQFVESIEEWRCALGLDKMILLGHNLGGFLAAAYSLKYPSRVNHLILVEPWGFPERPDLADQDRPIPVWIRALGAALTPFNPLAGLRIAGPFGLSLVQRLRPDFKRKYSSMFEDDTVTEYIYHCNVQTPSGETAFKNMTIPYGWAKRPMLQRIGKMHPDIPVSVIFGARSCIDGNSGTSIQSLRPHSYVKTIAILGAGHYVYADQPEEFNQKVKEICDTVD
UniProt Q19AV6: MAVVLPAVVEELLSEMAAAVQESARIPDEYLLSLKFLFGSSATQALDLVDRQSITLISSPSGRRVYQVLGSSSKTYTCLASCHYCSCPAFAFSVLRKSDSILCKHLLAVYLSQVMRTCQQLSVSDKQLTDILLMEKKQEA
UniProt Q9P0T4: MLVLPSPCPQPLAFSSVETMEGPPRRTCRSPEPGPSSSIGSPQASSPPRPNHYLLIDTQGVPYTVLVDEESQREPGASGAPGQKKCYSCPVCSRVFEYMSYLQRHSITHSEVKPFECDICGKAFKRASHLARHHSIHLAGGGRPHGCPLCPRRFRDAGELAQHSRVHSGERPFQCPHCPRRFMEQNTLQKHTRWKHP
UniProt P28288: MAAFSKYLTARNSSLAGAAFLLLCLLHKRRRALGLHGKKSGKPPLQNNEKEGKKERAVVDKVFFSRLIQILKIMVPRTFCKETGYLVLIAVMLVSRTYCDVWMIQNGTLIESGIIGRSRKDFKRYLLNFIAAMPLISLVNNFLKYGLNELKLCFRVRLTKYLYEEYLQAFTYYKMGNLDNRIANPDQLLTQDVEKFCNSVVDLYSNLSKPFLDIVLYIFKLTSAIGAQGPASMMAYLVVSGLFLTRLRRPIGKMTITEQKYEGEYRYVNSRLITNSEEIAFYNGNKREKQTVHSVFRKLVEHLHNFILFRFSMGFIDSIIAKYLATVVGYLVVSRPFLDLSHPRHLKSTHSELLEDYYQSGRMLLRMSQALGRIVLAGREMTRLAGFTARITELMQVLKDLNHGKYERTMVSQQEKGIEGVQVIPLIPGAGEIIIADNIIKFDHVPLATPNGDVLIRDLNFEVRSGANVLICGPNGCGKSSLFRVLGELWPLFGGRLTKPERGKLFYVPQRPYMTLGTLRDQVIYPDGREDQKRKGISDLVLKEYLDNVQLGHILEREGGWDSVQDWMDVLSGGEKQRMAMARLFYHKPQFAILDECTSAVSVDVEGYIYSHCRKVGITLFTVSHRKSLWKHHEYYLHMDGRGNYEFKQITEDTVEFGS
UniProt Q5JTZ9, whole entry, looked up: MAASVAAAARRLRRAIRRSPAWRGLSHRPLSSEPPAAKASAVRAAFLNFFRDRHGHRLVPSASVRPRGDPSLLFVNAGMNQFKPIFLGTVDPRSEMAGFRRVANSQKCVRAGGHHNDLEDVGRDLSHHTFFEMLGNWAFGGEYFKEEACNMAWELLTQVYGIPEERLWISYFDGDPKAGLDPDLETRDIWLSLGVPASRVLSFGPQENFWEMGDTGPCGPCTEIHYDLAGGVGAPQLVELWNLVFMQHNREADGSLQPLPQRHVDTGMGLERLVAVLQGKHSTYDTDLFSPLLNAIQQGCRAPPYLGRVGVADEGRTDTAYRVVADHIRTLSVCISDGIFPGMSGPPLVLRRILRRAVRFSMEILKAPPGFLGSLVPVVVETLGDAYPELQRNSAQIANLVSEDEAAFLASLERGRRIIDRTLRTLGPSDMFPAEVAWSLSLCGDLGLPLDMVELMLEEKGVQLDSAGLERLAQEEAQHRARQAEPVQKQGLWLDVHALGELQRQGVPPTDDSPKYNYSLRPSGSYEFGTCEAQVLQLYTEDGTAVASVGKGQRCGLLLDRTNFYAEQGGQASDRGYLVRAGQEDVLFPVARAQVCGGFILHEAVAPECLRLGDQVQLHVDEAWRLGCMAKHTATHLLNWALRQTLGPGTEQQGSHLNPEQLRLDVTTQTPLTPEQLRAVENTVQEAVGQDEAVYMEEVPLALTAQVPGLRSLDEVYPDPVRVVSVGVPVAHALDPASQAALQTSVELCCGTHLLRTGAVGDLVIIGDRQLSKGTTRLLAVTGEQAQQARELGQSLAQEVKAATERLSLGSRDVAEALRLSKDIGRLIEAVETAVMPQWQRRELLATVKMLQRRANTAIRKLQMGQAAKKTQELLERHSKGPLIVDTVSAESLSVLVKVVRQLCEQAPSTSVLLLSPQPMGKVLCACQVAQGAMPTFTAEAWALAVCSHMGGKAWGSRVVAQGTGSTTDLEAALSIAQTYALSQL

Key:
[1] = compound: C1=CC=C(C=C1)[C@H](COC2=CC3=C(C=C2)NC(=O)N3)NC(=O)C4=CC=CN(C4=O)CC5=CC(=C(C=C5)F)F; assay: log2 fold change, soluble protein after heating vs DMSO (PISA); higher = thermal stabilisation; K562 lysate, 10 uM; active = over 0.2 and 3.5 SD of the protein, either way, in both replicates (recomputed)
How it was run: (§1)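 Log-two fold change in thermal stability relative to solvent controls is reported from duplicates. For each sample, crude K562 extract from dounce-homogenised pellets in PBS pH 7.4 with 1 mM MgCl2, at 1 mg/mL protein, was treated with 10 μM compound for 30 min. Aliquots heated for 3 min across 48°C-58°C were pooled, brought to 0.5% NP-40 at 4°C and cleared at 21,000xg for 90 min. The supernatant was quantified by TMTpro 16plex LC-MS/MS with channel sums equalised.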

[2] = compound: CC1=C(SC2=C1C(=N[C@H](C3=NN=C(N32)C)CC(=O)N)C4=CC=C(C=C4)Cl)C; assay: as above
How it was run: as §1

[3] = compound: CC1=C2C(=CC=C1)N=C(N(C2=O)C3=CC=CC=C3C)CN4C=NC5=C(N=CN=C54)N; assay: as above
How it was run: as §1

[4] = compound: Cc1sc2c(c1C)C(c1ccc(Cl)cc1)=N[C@@H](CC(=O)OC(C)(C)C)c1nnc(C)n1-2; assay: as above
How it was run: as §1

[5] = compound: c1ccc([C@@H]2C[C@H]2NC2CCNCC2)cc1; assay: as above
How it was run: as §1

[6] = compound: CC1=C(SC2=C1C(=N[C@H](C3=NN=C(N32)C)CC(=O)N)C4=CC=C(C=C4)Cl)C; assay: log2 fold change, soluble protein after heating vs DMSO (PISA); higher = thermal stabilisation; K562 cells, 10 uM, 30 min; active = over 0.2 and 3.5 SD of the protein, either way, in both replicates (recomputed)
How it was run: (§2)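 Values are thermal stability changes relative to control samples and are taken from duplicates. They are stated as log2 fold changes. Before quantification by TMTpro 16plex LC-MS/MS with equalised channel sums, K562 cells at 2×10^6 cells/mL were treated with 10 μM compound for 30 min, heated in aliquots for 3 min across 48°C-58°C, pooled, extracted in PBS with 0.5% NP-40 at 4°C, and centrifuged at 21,000xg for 90 min to give the soluble supernatant.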

[7] = compound: CC1=C2C(=CC=C1)N=C(N(C2=O)C3=CC=CC=C3C)CN4C=NC5=C(N=CN=C54)N; assay: as above
How it was run: as §2

[8] = compound: c1ccc([C@@H]2C[C@H]2NC2CCNCC2)cc1; assay: as above
How it was run: as §2

[9] = compound: C1=CC=C(C=C1)[C@H](COC2=CC3=C(C=C2)NC(=O)N3)NC(=O)C4=CC=CN(C4=O)CC5=CC(=C(C=C5)F)F; assay: as above
How it was run: as §2

[10] = compound: Cc1sc2c(c1C)C(c1ccc(Cl)cc1)=N[C@@H](CC(=O)OC(C)(C)C)c1nnc(C)n1-2; assay: as above
How it was run: as §2

[11] = compound: C1=CC2=NC=CN=C2C=C1/C=C/3\C(=O)NC(=O)S3; assay: log2 fold change, soluble protein after heating vs DMSO (PISA); higher = thermal stabilisation; K562 lysate, 10 uM; active = over 0.2 and 3.5 SD of the protein, either way, in both replicates (recomputed)
How it was run: as §1

[12] = compound: C=CC(=O)N1CCC[C@@H](n2nc(-c3ccc(Oc4ccccc4)cc3)c3c(N)ncnc32)C1 [ibrutinib]; assay: as above
How it was run: as §1

[13] = compound: CC(=O)c1cnc2ccc(-c3cc(Cl)c(O)c(Cl)c3)nc2c1N[C@H]1CC[C@H](CN(C)C)CC1; assay: as above
How it was run: as §1

[14] = compound: CC1=C(C(CC(=O)N1)C2=CC=C(C=C2)C(F)(F)F)C(=O)NC3=C(C=C4C(=C3)C=NN4)F; assay: as above
How it was run: as §1

[15] = compound: CC1=CC=C(C=C1)SC2=C3C=C(SC3=CN=C2)C(=O)N; assay: as above
How it was run: as §1

[16] = compound: CCCS(=O)(=O)Nc1ccc(F)c(C(=O)c2c[nH]c3ncc(Cl)cc23)c1F; assay: as above
How it was run: as §1

[17] = compound: CCN(CCCOc1ccc2c(Nc3cc(CC(=O)Nc4cccc(F)c4)[nH]n3)ncnc2c1)CCOP(=O)(O)O [barasertib]; assay: as above
How it was run: as §1

[18] = compound: CC[C@@H]1C(=O)N(C)c2cnc(Nc3ccc(C(=O)N[C@H]4CC[C@H](N5CCN(CC6CC6)CC5)CC4)cc3OC)nc2N1C(C)C [volasertib]; assay: as above
How it was run: as §1

[19] = compound: COc1cc(Nc2ncc3c(n2)-c2ccc(Cl)cc2C(c2c(F)cccc2OC)=NC3)ccc1C(=O)O [alisertib]; assay: as above
How it was run: as §1

[20] = compound: COc1cc2nc(-c3cc(F)ccc3O)nc(N[C@@H]3CNC[C@H]3C(C)(C)O)c2cc1OC; assay: as above
How it was run: as §1

[21] = compound: COc1cc2ncnc(Nc3ccc(F)c(Cl)c3)c2cc1OCCCN1CCOCC1 [gefitinib]; assay: as above
How it was run: as §1

[22] = compound: CS(=O)(=O)CCNCc1ccc(-c2ccc3ncnc(Nc4ccc(OCc5cccc(F)c5)c(Cl)c4)c3c2)o1 [lapatinib]; assay: as above
How it was run: as §1

[23] = compound: CS(=O)(=O)N1CCN(Cc2cc3nc(-c4cccc5[nH]ncc45)nc(N4CCOCC4)c3s2)CC1 [pictilisib]; assay: as above
How it was run: as §1

[24] = compound: Cc1ccc(NC(=O)c2ccc(CN3CC[C@H](N(C)C)C3)c(C(F)(F)F)c2)cc1Nc1nccc(-c2cncnc2)n1 [bafetinib]; assay: as above
How it was run: as §1

[25] = compound: Cc1cn(-c2cc(NC(=O)c3ccc(C)c(Nc4nccc(-c5cccnc5)n4)c3)cc(C(F)(F)F)c2)cn1 [nilotinib]; assay: as above
How it was run: as §1

[26] = compound: Cc1nc(Nc2n[nH]c3c2CN(C(=O)N[C@H](CN(C)C)c2ccccc2)C3(C)C)c2sccc2n1; assay: as above
How it was run: as §1

[27] = compound: Cc1ncc(-c2ccnc(Nc3ccc(S(C)(=O)=O)cc3)n2)n1C(C)C; assay: as above
How it was run: as §1

[28] = compound: Cn1cncc1[C@@](N)(c1ccc(Cl)cc1)c1ccc2c(c1)c(-c1cccc(Cl)c1)cc(=O)n2C [tipifarnib]; assay: as above
How it was run: as §1

[29] = compound: NC(=O)c1cnc(N[C@@H]2CCCC[C@@H]2N)nc1Nc1cccc(-n2nccn2)c1; assay: as above
How it was run: as §1

Measured: log2 fold change

A0A096LPI6, A0A096LPI6
inactive: [1] -0.012 | [2] 0.037 | [3] -0.008 | [4] -0.019 | [5] 0.014

ZNF444 (UniProt Q8N0Y2)
inactive: [6] -0.052 | [7] -0.412 | [8] -0.031

ZNHIT2 (UniProt Q9UHR6)
inactive: [7] -0.328

ZNF414 isoform 2 (UniProt Q96IQ9)
inactive: [9] 0.09 | [6] -0.123 | [7] -0.198 | [8] 0.314

Taken from the results shown (3 entries):
ZNF444 (UniProt Q8N0Y2)
inactive: [6] -0.052 | [7] -0.412 | [8] -0.031

ZNHIT2 (UniProt Q9UHR6)
inactive: [7] -0.328

ZNF414 isoform 2 (UniProt Q96IQ9)
inactive: [9] 0.09 | [6] -0.123 | [7] -0.198 | [8] 0.314

Further records:

ACIN1 isoform 5 (UniProt Q9UKV3)
inactive: [1] -0.002 | [2] 0.019 | [3] 0.013 | [4] -0.01 | [5] 0.012

ABCC5 (UniProt O15440)
inactive: [1] 0.087 | [2] -0.052 | [3] -0.108 | [4] -0.099 | [5] 0.115

ABCB7 isoform 2 (UniProt O75027)
inactive: [1] -0.08 | [2] 0.065 | [3] 0.007 | [4] 0.022 | [5] 0.044

ABCB6 (UniProt Q9NP58)
inactive: [1] 0.019 | [2] -0.028 | [3] 0.006 | [4] -0.04 | [5] -0.026

ABHD12 isoform 2 (UniProt Q8N2K0)
inactive: [1] 0.008 | [2] 0.042 | [3] 0.003 | [4] 0.031 | [5] 0.042

ABRAXAS1 (UniProt Q6UWZ7)
inactive: [1] 0.096 | [2] 0.034 | [3] -0.093 | [4] 0.005 | [5] -0.006

ZNRD2 (UniProt G3V1B8)
inactive: [9] 0.082 | [10] -0.104

ZSCAN21 (UniProt Q9Y5A6)
inactive: [6] -0.323 | [8] 0.034

ZNF639 (UniProt Q9UID6)
inactive: [7] 0.286 | [10] -0.131

ZNFX1 (UniProt Q9P2E3)
inactive: [7] 0.134

ZNF512 (UniProt Q96ME7)
inactive: [6] -0.117 | [8] -0.363

ABHD5 (UniProt Q8WTS1)
inactive: [1] -0.041 | [2] -0.09 | [3] -0.044 | [4] 0.083 | [5] 0.056

ZZZ3 (UniProt Q8IYH5)
inactive: [10] -0.153

ZNF74 isoform 5 (UniProt Q16587)
inactive: [9] -0.083 | [7] 0.097

ACIN1 (UniProt E7EQT4)
inactive: [1] 0.04 | [2] 0.015 | [3] 0.037 | [4] 0.032 | [5] -0.118

ZNF800 (UniProt Q2TB10)
inactive: [6] -0.201 | [10] 0.23 | [8] 0.336

ZSWIM7 (UniProt Q19AV6)
inactive: [9] 0.051 | [7] -0.352 | [10] 0.286

ZNF618 (UniProt B1ALC2)
inactive: [9] -0.048 | [6] -0.046 | [8] 0.071

AASDH (UniProt Q4L235)
inactive: [1] 0.05 | [2] -0.059 | [3] -0.046 | [4] 0.006 | [5] -0.017

ACHE isoform 2 (UniProt P22303)
inactive: [11] -0.005 | [1] 0.122 | [12] -0.028 | [13] -0.22 | [14] 0.071 | [2] -0.073 | [15] 0.234 | [16] 0.049 | [17] 0.038 | [18] 0.185 | [19] 0.072 | [20] 0.02 | [21] -0.255 | [22] 0.144 | [23] 0.051 | [24] 0.085 | [25] 0.039 | [26] 0.106 | [27] -0.017 | [28] -0.123 | [29] -0.153

ZNF581 (UniProt Q9P0T4)
inactive: [6] 0.205 | [8] -0.047

ZNF618 isoform 2 (UniProt Q5T7W0)
inactive: [9] -0.015 | [7] -0.198 | [10] -0.005

ACAD9 (UniProt Q9H845)
inactive: [1] 0.054 | [2] -0.019 | [3] 0.069 | [4] 0.006 | [5] -0.011

ZNF644 (UniProt Q9H582)
inactive: [7] -0.047

ABHD13 (UniProt Q7L211)
inactive: [1] 0.043 | [2] -0.127 | [3] 0.153 | [4] -0.171 | [5] -0.246

ABCD3 (UniProt P28288)
inactive: [1] 0.178 | [2] -0.094 | [3] 0.016 | [4] 0.013 | [5] 0.01

AARS2 (UniProt Q5JTZ9)
inactive: [1] 0.014 | [2] -0.076 | [3] 0.026 | [4] 0.041 | [5] 0.045
